{"source": "PubChem BioAssay AID1671195 (Yale University, 2021)", "aim": "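Knockdowns that increase or decrease uptake of fluorescent LDL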 (primary screen)", "cell system": "human Huh7 hepatoma cells", "knock-down reagent": "siRNA pool against human genes, 18 nM", "timing": "about 2 to 2.5 days of knockdown, then 8 h LDL uptake", "conditions": "DiI-labelled LDL at 30 µg/ml for 8 h, in lipoprotein-deficient serum medium", "measurement": "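Fluorescent LDL signal imaged in cells, scaled to the plate median, robust z-score for each replicate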", "direction": "robust z-score: higher = more LDL uptake after knockdown", "active means": "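a gene counts as active if at least two replicate z-scores exceed ±2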", "note": "This is a random part of about 22,000 reagents. In the full data, about 1,510 (6.9%) are marked active. 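Active includes knockdowns raising or lowering LDL uptake; positive z-scores mean more uptake, negative mean less.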 A number with no mark means an inactive call."}
{"gene symbol": "RPL23AP43 (ribosomal protein L23a pseudogene 43)", "robust z-score, replicate 1": -0.405, "robust z-score, replicate 2": -0.65, "robust z-score, replicate 3": -0.472}
{"gene symbol": "SELENOH (selenoprotein H)", "robust z-score, replicate 1": 0.0284, "robust z-score, replicate 2": 0.339, "robust z-score, replicate 3": 0.483}
{"gene symbol": "UCP2 (uncoupling protein 2)", "robust z-score, replicate 1": -0.831, "robust z-score, replicate 2": -0.323, "robust z-score, replicate 3": -0.397}
{"gene symbol": "UGT2A3 (UDP glucuronosyltransferase family 2 member A3)", "robust z-score, replicate 1": -0.705, "robust z-score, replicate 2": -0.575, "robust z-score, replicate 3": -0.368}
{"gene symbol": "ZNF83 (zinc finger protein 83)", "robust z-score, replicate 1": 0.89, "robust z-score, replicate 2": 0.172, "robust z-score, replicate 3": 0.142}
{"gene symbol": "LOC440570", "robust z-score, replicate 1": -0.264, "robust z-score, replicate 2": -0.7, "robust z-score, replicate 3": -0.27}
{"gene symbol": "GOLGA2P11 (GOLGA2 pseudogene 11)", "robust z-score, replicate 1": "2.66 (active)", "robust z-score, replicate 2": 3.43, "robust z-score, replicate 3": 2.89}
{"gene symbol": "LOC440065 (retired record)", "robust z-score, replicate 1": 1.27, "robust z-score, replicate 2": 1.29, "robust z-score, replicate 3": 1.41}
{"gene symbol": "CFAP184 (cilia and flagella associated protein 184)", "robust z-score, replicate 1": -0.182, "robust z-score, replicate 2": -0.0936, "robust z-score, replicate 3": -0.25}
{"gene symbol": "MUC2 (mucin 2, oligomeric mucus/gel-forming)", "robust z-score, replicate 1": -0.85, "robust z-score, replicate 2": -0.436, "robust z-score, replicate 3": -1.24}
{"gene symbol": "UEVLD (UEV and lactate/malate dehyrogenase domains)", "robust z-score, replicate 1": 0.882, "robust z-score, replicate 2": -0.251, "robust z-score, replicate 3": 1.04}
{"gene symbol": "ZNF355P (zinc finger protein 355, pseudogene)", "robust z-score, replicate 1": -0.172, "robust z-score, replicate 2": 0.0827, "robust z-score, replicate 3": -0.27}
{"gene symbol": "IQCK (IQ motif containing K)", "robust z-score, replicate 1": 1.23, "robust z-score, replicate 2": 0.0288, "robust z-score, replicate 3": 0.262}
{"gene symbol": "BEX4 (brain expressed X-linked 4)", "robust z-score, replicate 1": 0.501, "robust z-score, replicate 2": 0.359, "robust z-score, replicate 3": 0.676}

Next part; the last 2 above are carried over.
{"gene symbol": "IQCK (IQ motif containing K)", "robust z-score, replicate 1": 1.23, "robust z-score, replicate 2": 0.0288, "robust z-score, replicate 3": 0.262}
{"gene symbol": "BEX4 (brain expressed X-linked 4)", "robust z-score, replicate 1": 0.501, "robust z-score, replicate 2": 0.359, "robust z-score, replicate 3": 0.676}
{"gene symbol": "MMP1 (matrix metallopeptidase 1)", "robust z-score, replicate 1": -0.97, "robust z-score, replicate 2": -0.0926, "robust z-score, replicate 3": -0.661}
{"gene symbol": "CACNA1G-AS1 (CACNA1G antisense RNA 1)", "robust z-score, replicate 1": 1.58, "robust z-score, replicate 2": 1.88, "robust z-score, replicate 3": 1.64}
{"gene symbol": "CDK5RAP2 (CDK5 regulatory subunit associated protein 2)", "robust z-score, replicate 1": -0.151, "robust z-score, replicate 2": -0.984, "robust z-score, replicate 3": -1.18}
{"gene symbol": "ACTC1 (actin alpha cardiac muscle 1)", "robust z-score, replicate 1": -0.496, "robust z-score, replicate 2": -0.417, "robust z-score, replicate 3": -0.565}
{"gene symbol": "NAPA (NSF attachment protein alpha)", "robust z-score, replicate 1": 1.33, "robust z-score, replicate 2": 1.69, "robust z-score, replicate 3": 3.06}
{"gene symbol": "BCAR4 (breast cancer anti-estrogen resistance 4)", "robust z-score, replicate 1": -2.27, "robust z-score, replicate 2": -1.26, "robust z-score, replicate 3": -1.15}
{"gene symbol": "ZNF611 (zinc finger protein 611)", "robust z-score, replicate 1": -0.337, "robust z-score, replicate 2": -0.0232, "robust z-score, replicate 3": -0.0217}
{"gene symbol": "LOC729222", "robust z-score, replicate 1": -0.656, "robust z-score, replicate 2": -0.628, "robust z-score, replicate 3": -0.523}
{"gene symbol": "SEC23A (SEC23 homolog A, COPII component)", "robust z-score, replicate 1": 1.25, "robust z-score, replicate 2": 0.682, "robust z-score, replicate 3": 1.39}
{"gene symbol": "ABHD15 (abhydrolase domain containing 15)", "robust z-score, replicate 1": "1.38 (active)", "robust z-score, replicate 2": 2.24, "robust z-score, replicate 3": 2.4}
{"gene symbol": "ARHGAP22 (Rho GTPase activating protein 22)", "robust z-score, replicate 1": -1.09, "robust z-score, replicate 2": -1.23, "robust z-score, replicate 3": -1.14}
{"gene symbol": "TEX44 (testis expressed 44)", "robust z-score, replicate 1": "3.03 (active)", "robust z-score, replicate 2": 1.95, "robust z-score, replicate 3": 2.22}
{"gene symbol": "ITGA2 (integrin subunit alpha 2)", "robust z-score, replicate 1": 2.02, "robust z-score, replicate 2": -1.53, "robust z-score, replicate 3": 0.632}
{"gene symbol": "SLCO1B3", "robust z-score, replicate 1": 0.565, "robust z-score, replicate 2": 0.12, "robust z-score, replicate 3": 0.487}
{"gene symbol": "TTLL5 (tubulin tyrosine ligase like 5)", "robust z-score, replicate 1": -1.39, "robust z-score, replicate 2": -1.17, "robust z-score, replicate 3": -1.43}
{"gene symbol": "TATDN3 (TatD DNase domain containing 3)", "robust z-score, replicate 1": -0.563, "robust z-score, replicate 2": 0.275, "robust z-score, replicate 3": -0.0996}
